Experimental data taken from publication PMC6056059.
Substitutions are numbered along the chain they refer to. Results are given in words; binding and its absence hold for the method and conditions named. Binding seen in cells or lysates may run through a third protein. A yes stands for co-enrichment or nearness to the bait. Other partners may have been found. For some assays here: A no says only that the protein was not detected with the bait. Where a sequence is shown, tags or fusion partners need not be part of it. Values belong to the molecule of their own block, whether it stands above or below them.

By UniProt entry, the sequences of proteins in these tests, tags left out.
UniProt P27708: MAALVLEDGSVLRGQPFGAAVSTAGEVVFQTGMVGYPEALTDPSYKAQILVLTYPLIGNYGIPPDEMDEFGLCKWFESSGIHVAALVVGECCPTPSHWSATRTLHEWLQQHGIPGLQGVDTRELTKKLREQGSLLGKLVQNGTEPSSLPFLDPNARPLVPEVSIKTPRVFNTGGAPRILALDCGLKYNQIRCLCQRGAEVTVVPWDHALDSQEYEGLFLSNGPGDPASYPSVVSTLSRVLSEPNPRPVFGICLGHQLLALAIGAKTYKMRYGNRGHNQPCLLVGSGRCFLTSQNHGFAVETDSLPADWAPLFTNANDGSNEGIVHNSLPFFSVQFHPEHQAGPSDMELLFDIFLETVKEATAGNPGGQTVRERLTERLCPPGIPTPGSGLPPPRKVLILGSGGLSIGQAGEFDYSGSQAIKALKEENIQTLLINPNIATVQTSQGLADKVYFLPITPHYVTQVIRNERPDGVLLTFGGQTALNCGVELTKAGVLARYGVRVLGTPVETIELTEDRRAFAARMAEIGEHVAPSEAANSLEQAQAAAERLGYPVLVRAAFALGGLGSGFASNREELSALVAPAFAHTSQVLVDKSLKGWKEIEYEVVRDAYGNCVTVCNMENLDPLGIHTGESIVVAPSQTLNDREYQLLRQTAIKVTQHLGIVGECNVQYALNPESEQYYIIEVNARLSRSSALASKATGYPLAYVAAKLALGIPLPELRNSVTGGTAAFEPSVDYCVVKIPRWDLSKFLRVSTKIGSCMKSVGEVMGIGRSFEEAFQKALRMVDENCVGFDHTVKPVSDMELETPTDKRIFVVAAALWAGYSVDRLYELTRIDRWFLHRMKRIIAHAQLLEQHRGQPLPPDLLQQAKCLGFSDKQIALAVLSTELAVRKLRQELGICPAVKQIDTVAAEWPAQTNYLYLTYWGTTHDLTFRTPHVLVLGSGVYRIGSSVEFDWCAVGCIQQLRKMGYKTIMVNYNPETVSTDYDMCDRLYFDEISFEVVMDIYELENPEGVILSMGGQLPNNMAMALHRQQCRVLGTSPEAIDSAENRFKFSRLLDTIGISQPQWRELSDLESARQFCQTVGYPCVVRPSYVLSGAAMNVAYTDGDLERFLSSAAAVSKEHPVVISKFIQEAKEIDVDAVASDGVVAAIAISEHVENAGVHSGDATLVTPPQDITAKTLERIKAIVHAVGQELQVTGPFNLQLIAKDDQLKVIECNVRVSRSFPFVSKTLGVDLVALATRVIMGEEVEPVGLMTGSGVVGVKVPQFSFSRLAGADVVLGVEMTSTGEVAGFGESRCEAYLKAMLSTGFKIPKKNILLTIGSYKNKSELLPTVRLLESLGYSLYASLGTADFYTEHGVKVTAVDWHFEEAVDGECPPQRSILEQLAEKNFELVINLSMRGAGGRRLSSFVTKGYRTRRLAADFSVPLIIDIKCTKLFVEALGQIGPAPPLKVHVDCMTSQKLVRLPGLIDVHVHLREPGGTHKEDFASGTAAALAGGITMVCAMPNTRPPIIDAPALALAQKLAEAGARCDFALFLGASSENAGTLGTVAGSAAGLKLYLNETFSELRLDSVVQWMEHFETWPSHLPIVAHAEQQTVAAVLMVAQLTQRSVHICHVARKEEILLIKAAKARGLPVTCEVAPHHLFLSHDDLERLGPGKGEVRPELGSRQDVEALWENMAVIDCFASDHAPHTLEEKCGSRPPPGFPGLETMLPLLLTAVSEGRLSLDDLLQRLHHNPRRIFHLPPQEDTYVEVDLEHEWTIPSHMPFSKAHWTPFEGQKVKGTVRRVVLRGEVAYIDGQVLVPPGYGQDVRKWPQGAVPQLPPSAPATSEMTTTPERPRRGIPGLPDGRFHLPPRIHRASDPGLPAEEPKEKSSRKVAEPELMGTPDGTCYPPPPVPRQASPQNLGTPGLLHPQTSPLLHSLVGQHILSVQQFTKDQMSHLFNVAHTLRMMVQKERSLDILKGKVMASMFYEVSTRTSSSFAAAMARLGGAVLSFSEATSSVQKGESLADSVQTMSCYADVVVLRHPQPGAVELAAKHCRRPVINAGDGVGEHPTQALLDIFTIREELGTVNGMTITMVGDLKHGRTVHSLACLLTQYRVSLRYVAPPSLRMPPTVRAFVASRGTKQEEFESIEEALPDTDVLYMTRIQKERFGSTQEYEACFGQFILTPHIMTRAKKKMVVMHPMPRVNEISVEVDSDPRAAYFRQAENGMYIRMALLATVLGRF
UniProt Q16531: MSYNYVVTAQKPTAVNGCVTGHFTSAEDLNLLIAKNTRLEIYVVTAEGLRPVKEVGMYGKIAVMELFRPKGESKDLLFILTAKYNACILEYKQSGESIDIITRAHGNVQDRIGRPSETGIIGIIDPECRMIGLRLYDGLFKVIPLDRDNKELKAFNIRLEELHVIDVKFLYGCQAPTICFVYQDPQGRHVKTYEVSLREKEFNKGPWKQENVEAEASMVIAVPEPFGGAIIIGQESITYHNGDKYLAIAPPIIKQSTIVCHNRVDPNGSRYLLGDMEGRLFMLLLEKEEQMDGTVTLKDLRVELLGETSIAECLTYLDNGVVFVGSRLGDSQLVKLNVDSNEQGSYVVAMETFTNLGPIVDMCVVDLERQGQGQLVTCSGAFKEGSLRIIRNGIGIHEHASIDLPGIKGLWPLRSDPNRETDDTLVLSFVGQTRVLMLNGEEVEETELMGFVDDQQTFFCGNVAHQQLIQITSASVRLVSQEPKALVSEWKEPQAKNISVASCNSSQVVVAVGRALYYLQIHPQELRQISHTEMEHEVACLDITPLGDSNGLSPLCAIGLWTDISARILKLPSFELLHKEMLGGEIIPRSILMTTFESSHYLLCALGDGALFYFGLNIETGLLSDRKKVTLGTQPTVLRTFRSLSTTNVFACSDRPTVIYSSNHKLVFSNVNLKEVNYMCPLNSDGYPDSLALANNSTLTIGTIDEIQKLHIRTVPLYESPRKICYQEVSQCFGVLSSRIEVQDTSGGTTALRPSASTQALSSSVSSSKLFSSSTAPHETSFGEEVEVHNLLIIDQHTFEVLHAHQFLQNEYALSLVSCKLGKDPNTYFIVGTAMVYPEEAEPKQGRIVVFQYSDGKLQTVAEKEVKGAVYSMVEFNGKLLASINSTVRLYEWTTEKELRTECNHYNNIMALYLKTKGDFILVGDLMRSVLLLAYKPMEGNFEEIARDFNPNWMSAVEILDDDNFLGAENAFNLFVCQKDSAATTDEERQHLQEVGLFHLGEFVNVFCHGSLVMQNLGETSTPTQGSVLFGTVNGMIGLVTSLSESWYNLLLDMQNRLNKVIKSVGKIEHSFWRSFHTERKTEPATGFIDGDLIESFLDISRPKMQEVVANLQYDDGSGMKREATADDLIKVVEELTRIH
UniProt Q8IUR7: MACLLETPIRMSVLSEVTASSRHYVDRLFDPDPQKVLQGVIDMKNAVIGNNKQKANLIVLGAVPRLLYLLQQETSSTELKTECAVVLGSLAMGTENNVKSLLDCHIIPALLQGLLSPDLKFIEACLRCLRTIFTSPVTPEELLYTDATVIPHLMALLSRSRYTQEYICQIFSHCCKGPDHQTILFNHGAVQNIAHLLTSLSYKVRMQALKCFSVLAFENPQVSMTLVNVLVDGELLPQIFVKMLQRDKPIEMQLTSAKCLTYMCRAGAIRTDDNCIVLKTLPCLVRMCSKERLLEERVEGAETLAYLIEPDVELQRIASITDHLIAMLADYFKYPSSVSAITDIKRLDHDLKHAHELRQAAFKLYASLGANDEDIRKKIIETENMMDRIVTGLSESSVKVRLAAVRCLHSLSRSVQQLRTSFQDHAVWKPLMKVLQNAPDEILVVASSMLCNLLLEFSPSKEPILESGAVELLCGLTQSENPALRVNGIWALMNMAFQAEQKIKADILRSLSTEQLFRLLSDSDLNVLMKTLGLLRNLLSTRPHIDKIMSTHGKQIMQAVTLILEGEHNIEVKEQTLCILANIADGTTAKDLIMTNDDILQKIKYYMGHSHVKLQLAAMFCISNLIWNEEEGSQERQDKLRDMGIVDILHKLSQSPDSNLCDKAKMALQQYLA
UniProt A5YKK6: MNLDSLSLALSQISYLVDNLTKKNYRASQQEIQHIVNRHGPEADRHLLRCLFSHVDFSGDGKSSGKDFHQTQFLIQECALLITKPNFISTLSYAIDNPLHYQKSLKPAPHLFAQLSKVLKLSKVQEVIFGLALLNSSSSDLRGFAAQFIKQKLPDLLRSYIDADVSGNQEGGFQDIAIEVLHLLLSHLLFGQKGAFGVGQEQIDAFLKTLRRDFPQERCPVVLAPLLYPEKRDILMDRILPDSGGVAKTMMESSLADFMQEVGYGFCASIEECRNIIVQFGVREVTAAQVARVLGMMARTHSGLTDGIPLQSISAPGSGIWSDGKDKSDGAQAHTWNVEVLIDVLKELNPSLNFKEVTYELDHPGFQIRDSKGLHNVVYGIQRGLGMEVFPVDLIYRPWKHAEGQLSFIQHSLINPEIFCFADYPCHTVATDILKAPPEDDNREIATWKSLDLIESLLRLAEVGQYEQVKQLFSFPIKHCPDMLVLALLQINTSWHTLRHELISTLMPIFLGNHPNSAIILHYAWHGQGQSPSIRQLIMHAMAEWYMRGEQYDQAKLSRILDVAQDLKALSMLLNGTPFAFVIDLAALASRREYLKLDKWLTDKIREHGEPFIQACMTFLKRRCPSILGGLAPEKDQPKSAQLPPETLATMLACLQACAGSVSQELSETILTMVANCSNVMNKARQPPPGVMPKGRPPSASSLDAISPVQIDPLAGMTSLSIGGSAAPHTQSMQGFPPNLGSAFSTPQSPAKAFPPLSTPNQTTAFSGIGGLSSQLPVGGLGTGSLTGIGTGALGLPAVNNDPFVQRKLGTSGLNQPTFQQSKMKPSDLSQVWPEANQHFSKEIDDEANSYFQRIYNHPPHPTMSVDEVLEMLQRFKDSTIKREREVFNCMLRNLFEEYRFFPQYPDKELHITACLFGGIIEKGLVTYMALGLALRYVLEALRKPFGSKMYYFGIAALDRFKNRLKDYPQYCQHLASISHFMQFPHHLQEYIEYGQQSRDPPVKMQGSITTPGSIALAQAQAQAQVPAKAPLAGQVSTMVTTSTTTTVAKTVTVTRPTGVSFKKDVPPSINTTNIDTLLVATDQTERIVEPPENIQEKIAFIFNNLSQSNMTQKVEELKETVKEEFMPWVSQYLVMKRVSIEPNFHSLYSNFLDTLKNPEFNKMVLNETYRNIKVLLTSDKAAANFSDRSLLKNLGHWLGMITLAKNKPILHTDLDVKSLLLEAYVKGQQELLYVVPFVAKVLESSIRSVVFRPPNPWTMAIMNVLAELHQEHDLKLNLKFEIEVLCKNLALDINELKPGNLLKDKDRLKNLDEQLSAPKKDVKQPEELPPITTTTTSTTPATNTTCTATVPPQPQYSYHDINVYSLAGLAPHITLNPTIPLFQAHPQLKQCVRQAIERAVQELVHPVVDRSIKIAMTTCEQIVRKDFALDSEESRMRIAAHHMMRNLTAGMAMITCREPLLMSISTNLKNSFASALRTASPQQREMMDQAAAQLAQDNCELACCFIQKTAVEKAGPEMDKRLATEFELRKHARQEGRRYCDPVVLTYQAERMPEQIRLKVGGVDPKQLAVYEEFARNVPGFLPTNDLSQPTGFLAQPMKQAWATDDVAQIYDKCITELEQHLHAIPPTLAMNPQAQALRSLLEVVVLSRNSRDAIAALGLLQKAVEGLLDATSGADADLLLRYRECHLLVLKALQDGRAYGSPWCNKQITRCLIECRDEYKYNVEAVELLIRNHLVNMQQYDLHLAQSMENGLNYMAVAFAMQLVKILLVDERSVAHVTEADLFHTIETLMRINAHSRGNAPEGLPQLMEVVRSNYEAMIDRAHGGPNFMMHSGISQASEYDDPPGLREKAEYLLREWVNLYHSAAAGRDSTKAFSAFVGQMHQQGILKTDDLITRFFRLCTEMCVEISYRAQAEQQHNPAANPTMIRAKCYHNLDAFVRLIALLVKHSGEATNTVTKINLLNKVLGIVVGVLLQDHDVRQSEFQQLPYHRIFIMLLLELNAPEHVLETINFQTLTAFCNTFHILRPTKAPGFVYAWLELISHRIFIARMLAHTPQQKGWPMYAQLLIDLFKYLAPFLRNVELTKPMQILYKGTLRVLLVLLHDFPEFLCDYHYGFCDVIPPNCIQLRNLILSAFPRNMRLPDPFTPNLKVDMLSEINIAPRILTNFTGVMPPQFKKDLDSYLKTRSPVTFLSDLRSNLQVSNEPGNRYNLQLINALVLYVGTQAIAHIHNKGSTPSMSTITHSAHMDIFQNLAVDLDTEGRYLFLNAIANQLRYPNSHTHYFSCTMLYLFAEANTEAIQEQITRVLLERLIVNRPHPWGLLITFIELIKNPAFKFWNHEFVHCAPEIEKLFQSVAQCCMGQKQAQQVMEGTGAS

Key:
[1] = biological target: T1, TAP-tagged MmBicc1-D913K915E916/AAA (Bicc1 MutD-SH) (mouse) (UniProt Q99MQ1); assay: affinity purification with mass spectrometry; tandem affinity purification of Bicc1 WT and Bicc1 MutD at lower salt concentrations (30 mM Tris.HCl pH 7.6, 150 mM NaCl, 1 mM MgCl2, 0.05% NP-40; Strep elution with desthiobiotin 2X containing 300 mM); LC-MS/MS
T1 sequence: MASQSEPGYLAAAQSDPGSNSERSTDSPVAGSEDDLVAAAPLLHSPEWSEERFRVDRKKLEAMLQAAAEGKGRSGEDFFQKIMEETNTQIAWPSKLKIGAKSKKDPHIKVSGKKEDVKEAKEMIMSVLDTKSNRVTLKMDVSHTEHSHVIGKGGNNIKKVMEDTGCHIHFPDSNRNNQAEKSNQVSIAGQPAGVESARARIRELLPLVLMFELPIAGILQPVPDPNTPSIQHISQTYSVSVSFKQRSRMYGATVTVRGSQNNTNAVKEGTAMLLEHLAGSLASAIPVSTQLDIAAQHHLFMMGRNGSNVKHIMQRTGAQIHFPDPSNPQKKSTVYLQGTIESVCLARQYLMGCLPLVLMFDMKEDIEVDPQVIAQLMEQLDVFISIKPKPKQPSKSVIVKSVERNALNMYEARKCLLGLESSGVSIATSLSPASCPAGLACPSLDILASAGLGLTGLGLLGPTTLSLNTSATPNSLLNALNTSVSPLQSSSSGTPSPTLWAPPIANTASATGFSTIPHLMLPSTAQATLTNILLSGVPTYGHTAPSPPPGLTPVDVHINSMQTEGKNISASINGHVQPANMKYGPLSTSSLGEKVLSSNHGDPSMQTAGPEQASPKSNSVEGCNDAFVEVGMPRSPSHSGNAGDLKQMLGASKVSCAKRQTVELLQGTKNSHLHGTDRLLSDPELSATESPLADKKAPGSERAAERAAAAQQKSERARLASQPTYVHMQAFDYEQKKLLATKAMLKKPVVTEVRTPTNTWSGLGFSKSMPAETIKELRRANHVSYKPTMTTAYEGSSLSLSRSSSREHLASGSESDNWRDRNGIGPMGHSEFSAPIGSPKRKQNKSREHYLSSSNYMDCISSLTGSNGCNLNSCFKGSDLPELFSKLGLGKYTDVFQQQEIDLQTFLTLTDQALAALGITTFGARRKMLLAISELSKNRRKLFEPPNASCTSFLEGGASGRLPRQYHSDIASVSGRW

[2] = biological target: T2, tandem affinity-tagged Bicc1-StrepII-HA (Bicc1-SH) (mouse) (UniProt Q99MQ1); assay: as above
T2 sequence: T1 sequence with A913D, A915K, A916E

[3] = biological target: T2, tandem affinity-tagged Bicc1-StrepII-HA (Bicc1-SH) (mouse); assay: affinity purification with mass spectrometry; tandem affinity purification of Bicc1-SH from doxycycline-induced Flp-In T-REx HEK293 extracts (Strep-Tactin Sepharose, elution with desthiobiotin 3X containing 400 mM NaCl, then anti-HA agarose); uninduced cells as control; LC-MS/MS
[4] = biological target: T3, tandem affinity-tagged Bicc1-StrepII-HA (Bicc1-SH) (mouse), Q99MQ1; assay: as above; conditions: remark: other sources report otherwise
T3 chain: T1 sequence with A913D, A915K, A916E

Molecule: carbamoyl-phosphate synthetase 2, aspartate transcarbamylase, dihydroorotase (CAD), endogenous in HEK293 cells (from UniProt P27708 1-2225) (enzyme)
binding [1]: binds
binding [2]: binds

Molecule: CUL4-binding protein DDB1, endogenous in HEK293 cells (from UniProt Q16531 1-1140)
binding [3]: binds

B1: GID4 (formerly C17orf39), endogenous in HEK293 cells (protein, UniProt Q8IVV7 1-300)
chain: MCARGQVGRGTQLRTGRPCSQVPGSRWRPERLLRRQRAGGRPSRPHPARARPGLSLPATLLGSRAAAAVPLPLPPALAPGDPAMPVRTECPPPAGASAASAASLIPPPPINTQQPGVATSLLYSGSKFRGHQKSKGNSYDVEVVLQHVDTGNSYLCGYLKIKGLTEEYPTLTTFFEGEIISKKHPFLTRKWDADEDVDRKHWGKFLAFYQYAKSFNSDDFDYEELKNGDYVFMRWKEQFLVPDHTIKDISGASFAGFYYICFQKSAASIEGYYYHRSSEWYQSLNLTHVPEHSAPIYEFR
binding [3]: no binding

B2: ANKS6, endogenous in HEK293 cells, Q68DC2 1-871 (protein)
chain: MGEGGLPPAFQLLLRACDQGDTETARRLLEPGAAEPAERGAEPEAGAEPAGAEVAGPGAAAAGAVGAPVPVDCSDEAGNTALQFAAAGGHEPLVRFLLRRGASVNSRNHYGWSALMQAARFGHVSVAHLLLDHGADVNAQNRLGASVLTVASRGGHLGVVKLLLEAGAFVDHHHPSGEQLGLGGSRDEPLDITALMAAIQHGHEAVVRLLMEWGADPNHAARTVGWSPLMLAALTGRLGVAQQLVEKGANPDHLSVLEKTAFEVALDCKHRDLVDYLDPLTTVRPKTDEEKRRPDIFHALKMGNFQLVKEIADEDPSHVNLVNGDGATPLMLAAVTGQLALVQLLVERHADVDKQDSVHGWTALMQATYHGNKEIVKYLLNQGADVTLRAKNGYTAFDLVMLLNDPDTELVRLLASVCMQVNKDKGRPSHQPPLPHSKVRQPWSIPVLPDDKGGLKSWWNRMSNRFRKLKLMQTLPRGLSSNQPLPFSDEPEPALDSTMRAAPQDKTSRSALPDAAPVTKDNGPGSTRGEKEDTLLTTMLRNGAPLTRLPSDKLKAVIPPFLPPSSFELWSSDRSRTRHNGKADPMKTALPQRASRGHPVGGGGTDTTPVRPVKFPSLPRSPASSANSGNFNHSPHSSGGSSGVGVSRHGGELLNRSGGSIDNVLSQIAAQRKKAAGLLEQKPSHRSSPVGPAPGSSPSELPASPAGGSAPVGKKLETSKRPPSGTSTTSKSTSPTLTPSPSPKGHTAESSVSSSSSHRQSKSSGGSSSGTITDEDELTGILKKLSLEKYQPIFEEQEVDMEAFLTLTDGDLKELGIKTDGSRQQILAAISELNAGKGRERQILQETIHNFHSSFESSASNTRAPGNSPCA
binding [4]: no binding

Now from value to molecule:

binding [1]: binds
Molecule: Armadillo repeat containing 8 (ARMC8), endogenous in HEK293 cells (from UniProt Q8IUR7 1-673)

binding [3]: binds
Molecule: CCR4-NOT deadenylase subunit NOT-9, endogenous in HEK293 cells (from UniProt Q92600 1-299)

binding [3]: binds
Molecule: NOT1 subunit of the CCR4-NOT complex (CNOT1), endogenous in HEK293 cells (from UniProt A5YKK6 1-2376)
